In PMC12931233:
No constants are given. Whether binding was seen depends on the method and setting. In cells and extracts the contact can be indirect. Some results given as binding are weak or reduced against the parent protein; the word gives no strength.

By UniProt entry, the sequences of proteins in these tests, tags left out. Where a name states a change or a piece, a line headed by the entry shows the natural chain unless it says otherwise. Chains listed by the source or under a name are the forms on record and can include a tag or linker. Residues count along the entry.
shRNA-resistant WT CD47, reconstituted in CD47-depleted MHCC97-H cells (Q08722, residues 19-323): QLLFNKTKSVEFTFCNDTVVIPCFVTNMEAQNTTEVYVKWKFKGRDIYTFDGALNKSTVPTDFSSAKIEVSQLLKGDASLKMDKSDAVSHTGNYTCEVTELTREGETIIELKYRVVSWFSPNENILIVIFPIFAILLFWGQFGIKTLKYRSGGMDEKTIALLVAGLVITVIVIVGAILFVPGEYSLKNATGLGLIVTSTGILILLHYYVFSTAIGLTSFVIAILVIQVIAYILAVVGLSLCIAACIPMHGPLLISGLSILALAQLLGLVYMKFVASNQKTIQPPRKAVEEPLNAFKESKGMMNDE
shRNA-resistant N111Q CD47, reconstituted in CD47-depleted MHCC97-H cells (Q08722, form named): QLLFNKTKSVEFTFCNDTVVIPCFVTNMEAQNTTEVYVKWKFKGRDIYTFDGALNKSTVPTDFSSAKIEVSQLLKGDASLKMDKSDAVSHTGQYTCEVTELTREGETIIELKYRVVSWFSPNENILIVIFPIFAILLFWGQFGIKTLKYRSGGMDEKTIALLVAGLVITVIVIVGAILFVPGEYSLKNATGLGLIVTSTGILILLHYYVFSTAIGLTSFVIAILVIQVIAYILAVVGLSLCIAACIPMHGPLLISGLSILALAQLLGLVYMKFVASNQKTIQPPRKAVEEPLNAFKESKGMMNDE
UniProt Q9HCE7: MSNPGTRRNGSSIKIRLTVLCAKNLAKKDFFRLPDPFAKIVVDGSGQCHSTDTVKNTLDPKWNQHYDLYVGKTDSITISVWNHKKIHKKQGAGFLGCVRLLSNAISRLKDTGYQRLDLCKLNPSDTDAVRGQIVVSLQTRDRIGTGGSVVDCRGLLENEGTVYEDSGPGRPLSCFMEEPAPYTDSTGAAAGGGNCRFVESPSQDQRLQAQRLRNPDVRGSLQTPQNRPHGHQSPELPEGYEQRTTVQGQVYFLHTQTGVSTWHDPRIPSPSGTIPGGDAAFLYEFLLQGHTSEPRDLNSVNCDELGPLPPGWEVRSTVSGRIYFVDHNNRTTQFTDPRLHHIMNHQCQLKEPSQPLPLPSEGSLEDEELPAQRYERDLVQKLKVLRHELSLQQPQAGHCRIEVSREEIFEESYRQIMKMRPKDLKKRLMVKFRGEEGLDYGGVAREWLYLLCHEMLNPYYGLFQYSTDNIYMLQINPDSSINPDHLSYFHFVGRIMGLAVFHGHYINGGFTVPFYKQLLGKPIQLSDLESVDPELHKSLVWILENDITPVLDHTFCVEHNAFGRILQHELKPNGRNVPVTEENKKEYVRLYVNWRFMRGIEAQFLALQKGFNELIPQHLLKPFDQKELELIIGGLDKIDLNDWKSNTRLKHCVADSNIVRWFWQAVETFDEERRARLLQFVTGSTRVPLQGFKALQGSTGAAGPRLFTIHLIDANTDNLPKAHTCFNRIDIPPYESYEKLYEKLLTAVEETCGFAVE

How the values were obtained:
[1] = molecular target: shRNA-resistant N111Q CD47, reconstituted in CD47-depleted MHCC97-H cells (human) (UniProt Q08722); assay: co-IP; CD47 WT or N111Q reconstituted MHCC97-H cells expressing vector or HA-FUT8, or treated with DMSO or 2F-Fuc; immunoblotting
[2] = molecular target: shRNA-resistant WT CD47, reconstituted in CD47-depleted MHCC97-H cells (human) (UniProt Q08722); assay: as above

- binding [1]: binds
- binding [2]: binds
Substance: SMURF1, E3 ubiquitin ligase, in MHCC97-H cells (from UniProt Q9HCE7 1-757) (enzyme)
